Some of these results come from one statement about several compounds together.
What was measured:
Soy plants = test: Growth tests after foliar spray, soy; assay type: in vivo; conditions: vs UTC plants which suffered drought stress at trial completion
Description: Soy seeds (or corn seeds, as indicated) were planted in flats with 2 seeds per cell within the flat at a greenhouse facility. The seeds were allowed to germinate and the smaller plant is culled, leaving one plant per cell. Once the first true leaves are fully expanded and the second leaves are beginning to expand, the plants were initially measured for height. This was performed by stretching the highest leaf upward and measuring the distance to the soil. Peptides were dissolved in water at the indicated concentrations (Table 21 below). The plants were then treated with a foliar spray using widely available spray bottles until liquid was dripping from the leaves. Six flats of 14 plants each were treated per condition (peptide or control). Designated untreated control plants were sprayed with water. The plants were allowed to grow for 14 days. The height of the plants was again measured and compared to the original height to quantify growth. Finally, the plants were harvested by removing the shoots (all above-ground material). For some experiments, this was weighed upon harvesting to determine the fresh mass (including water weight). The shoots were then dried at 70° C. for 72 hours, and again weighed to determine dry biomass. Although this method uses a similar measure (growth) as in Example 3 above, the treatment method is different (seed soak vs. foliar spray). […]

[1] = tested on: tobacco plants (leaf tissue discs); test: Peroxide response, ferric-xylenol orange assay on tobacco leaf discs; assay type: cell-based; conditions: 0.5 ug/ml peptide, one hour, absorbance at 595 nm vs blank
Description: The ferric-xylenol orange complex assay for hydrogen peroxide (Gay et al., Analytical Biochemistry 273:149-55 (1999), which is hereby incorporated by reference in its entirety) was used to determine peroxide production by plant leaf tissue. Briefly, reagent A was prepared by mixing 10 mg of ferrous ammonium sulfate with 133 uL of sulfuric acid in a total volume of 1 mL with water. Reagent B was prepared by mixing 2 g of sorbitol with 9.34 mg of xylenol orange in 80 ml of water. 1M hydrochloric acid was slowly added until the solution turned yellow. The solution was then diluted with water to a total volume of 100 mL, and stored in a dark bottle at 4° C.
Leaves from either tobacco plants (plants grown to 6 true leaves) or soy plants (plants grown to 6 true leaves) were used for the assay. The leaf was first removed from the plant and placed on a paper towel. […]
Just prior to analysis, reagents A and B were freshly mixed in a 1:100 ratio to produce the assay reagent. […] The plate was incubated in the dark for 20 minutes and the absorbance at 595 nm was detected. Results were analyzed using a two-tailed Student's T-test. […] XR++ indicated a positive response with absorbance >0.05 units above the negative control and a Student's T-test p<0.05. XR+ indicated an absorbance <0.05 units above the blank and a Student's T-test p<0.05. […] XR− indicated an absorbance within 0.02 units of the negative control. […]

Sequence	increase in fresh mass (conserved water content) (Soy plants) [%]	Peroxide Response, Tobacco [1]
ANNQDPMQALMQLLEDLV (P14a)	> 10	
KPNDSQSNIAKLISALI (P15-62)		XR− (XR− indicated an absorbance within 0.02 units of the negative control)
SEEEEEEIAKLISALI (P15-63)		XR− (XR− indicated an absorbance within 0.02 units of the negative control)
SEEEEELEQLLEDLVKLL (P14-32)	> 10	

Reference: US10524472B2, “Elicitor peptides having disrupted hypersensitive response box and use thereof” (Plant Health Care, Inc., priority 2014, dated 2020)
